According to article PMC12552968, “The RING-finger domain of Arabidopsis RMR functions as an E3 ligase essential for post-Golgi trafficking” (The Journal of Biological Chemistry, 2025):
Results are given in words; binding and its absence hold for the method and conditions named. Where a sequence is shown, tags or fusion partners need not be part of it.

By UniProt entry, the sequences of proteins in these tests, tags left out.
UniProt Q9FKT3: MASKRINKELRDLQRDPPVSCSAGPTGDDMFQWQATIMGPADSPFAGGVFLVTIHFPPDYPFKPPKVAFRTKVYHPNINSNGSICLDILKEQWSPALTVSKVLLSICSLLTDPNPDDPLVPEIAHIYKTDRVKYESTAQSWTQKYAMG

Biological target: T1, I234Y variant of GST-AtRMR1-RING (Arabidopsis) (UniProt Q9M622)
T1 sequence: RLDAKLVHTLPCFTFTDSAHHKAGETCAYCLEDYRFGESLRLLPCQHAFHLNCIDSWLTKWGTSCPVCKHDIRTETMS
Assay: pull-down; AtUbc30 (50 to 60 μM) with equimolar GST, wildtype or I234Y GST-AtRMR1-RING in the presence of GSTrap Sepharose; 30 mM Tris pH 7.5, 150 mM NaCl, 2 mM DTT; 4 h at 4 °C; eluted with 20 mM reduced glutathione; 15% SDS-PAGE, Coomassie blue; both purified

Substance: Arabidopsis E2 ubiquitin-conjugating enzyme AtUbc30 (from UniProt Q9FKT3 1-148)
- binding: no binding (tested: 50 μM)
